Measurements: PubChem BioAssay AID504444 (National Center for Advancing Translational Sciences (NCATS), 2011)
The campaign covered roughly 360,000 compounds. About 7,500 (2.1%) were called active. The inconclusive results got no clear call from the source; some entries with a clear call stand among them for comparison. Calls come from the whole dose curve; as a rule, active = well fitted inhibition curve with a large enough effect; inconclusive = small, poorly fitted or top-dose-only effect, or effect the other way; inactive = flat fitted curve, though single readings scatter. Where the call is inconclusive, the potency comes from a doubtful curve fit. Numbered stars: 1 amine (or outer) side, 2 acyl side, 3 side chain; on linkers, the order of the positions; unused ones are H or OH. Square brackets hold non-standard residues; d marks the D form. Peptide text beside a SMILES is read from it. X3 = CCC[C@@H](N[*:1])[C@H](C)C(=O)O[C@H](C(=O)[*:2])[C@@H](C)CC; X2 = CC(N[*:1])C(=O)C(C)(C)C(=O)[*:2]; NMeY = CN[C@@H](Cc1ccc(O)cc1)C(=O)O; NMeL = CN[C@@H](CC(C)C)C(=O)O; NMeV = CN[C@H](C(=O)O)C(C)C; NMeA = CN[C@@H](C)C(=O)O

Assay: Nrf2 qHTS screen for inhibitors; note: nearly all actives have a fitted effect of over 60% in size
Settings: A549 ARE-Fluc reporter, luciferase luminescence, 18-24 h; activity change, negative = inhibition: at 46 µM (top of the series)
Method in brief: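 Reporter: ARE-Fluc in A549. Exposure: 18-24 h, 37 °C, 5% CO2, 5% FBS OPTI-MEM. Readouts: fluorescent cytotoxicity (CellTiter-Fluor), then luminescent Nrf2 signal after BugLite.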
% is set by controls: 0 for no effect and ±100 for the full control effect; potency is the fitted concentration of half-maximal effect.

Row | SMILES | Potency | activity change, negative = inhibition
1 | O=C(Nc1cccnc1)C1CC(c2ccccc2O)=NO1 (stereo unspecified) | inconclusive: 18.4 µM [falling, single point] | –
2 | COc1ccccc1NC(=S)N(Cc1ccc(Cl)cc1)CC1CCC(C(=O)O)CC1 (stereo unspecified) | inconclusive: 25.9 µM [falling, partial curve, poor fit] | –
3 | CN(C)c1nc(-c2ccccc2)cc(C(F)(F)F)c1C#N | inconclusive: 25.9 µM [activator, single point] | –
4 | CC(=O)c1cc(CC(=O)N2CCc3c([nH]c4ccccc34)C2c2ccccn2)cs1 (stereo unspecified) | inconclusive: 29.1 µM [falling, single point] | –
5 | Cc1cc(NS(=O)(=O)c2ccc(NC(=S)NC(=O)c3ccc(F)cc3)cc2)no1 | – | inactive: -5.37%
6 | COc1cc(C(=O)Nc2scc(-c3ccc(Br)cc3)c2C(=O)O)cc(OC)c1OC | active: 16.4 µM | –
7 | Cc1ccccc1CNC(=O)Cn1cc2c(n1)-c1c(oc(C(=O)N3CCCC3)c1C)CC2 | inconclusive: 14.6 µM [falling, partial curve, poor fit] | –
8 | COc1ccc(OC)c(CNC(=O)CCC(=O)N2Cc3ccccc3Oc3ncccc32)c1 | inconclusive: 6.51 µM [activator, partial curve, poor fit] | –
9 | Cc1ccc(NC(=O)c2ccnc(C(C)(C)C)c2)cc1 | inconclusive: 25.9 µM [falling, single point] | –
10 | O=C(CNC(=O)c1ccccc1)N/N=C/c1ccc([N+](=O)[O-])s1 | inconclusive: 29.1 µM [falling, single point] | –
11 | O=C(CN(c1ccccc1F)S(=O)(=O)c1ccccc1)NC1CCCCCC1 | – | inactive: -6.58%
12 | COCCNC(=O)c1onc(CSc2ccncc2)c1C(=O)NCCOC | – | inactive: 0.841%
13 | COc1cc(S(=O)(=O)Nc2ccc3nc(C)sc3c2)ccc1NC(C)=O | inconclusive: 3.66 µM [falling, full curve] | –
14 | COc1cc(Br)cc(/C=C/c2ccc3cccc(O)c3n2)c1O | – | inactive: -1.21%
15 | Cc1cc(-n2c(SCc3ccccc3F)nc3n[nH]c(C)c3c2=N)ccc1Cl | inconclusive: 11.6 µM [falling, partial curve] | –
16 | Cc1ccc(C(=O)OCC(=O)N2c3ccccc3NC(=O)C2(C)C)cc1S(=O)(=O)N1CCCCC1 | inconclusive: 29.1 µM [falling, single point] | –
17 | O=C(c1ccccc1)c1ccc(OCCCCN2CCCCC2)cc1 | – | inactive: 4.83%
18 | CCc1ccc(CN2CCC(C(=O)Nc3ccc(Oc4ccccc4)nc3)CC2)o1 | inconclusive: 29.1 µM [falling, single point] | –
19 | COc1ccccc1C1(O)CC2CCC(C1)N2S(=O)(=O)c1ccc(C(C)=O)cc1 (stereo unspecified) | inconclusive: 1.16 µM [falling, partial curve, poor fit] | –
20 | COc1ccccc1NC(=O)C(C)OC(=O)c1cc2ccccc2[nH]1 (stereo unspecified) | active: 20.6 µM | –
21 | Cc1ccc(-c2cc(C(=O)O)c3sc(N4CCCCC4)nc3n2)cc1 | – | inactive: -12.7%
22 | O=[N+]([O-])c1ccc(NC(=S)NCCc2ccc(F)cc2)cc1 | inconclusive: 29.1 µM [falling, single point] | –

Row | SMILES | Potency | activity change, negative = inhibition
23 | COc1cc(Cl)c(NC(=O)CN(C)S(=O)(=O)c2ccc3[nH]c4c(c3c2)CCCC4)c(OC)c1 | active: 23.1 µM | –
24 | NC(=O)NC(=O)COC(=O)c1ccc2noc(-c3ccccc3)c2c1 | inconclusive: 20.6 µM [activator, partial curve, poor fit] | –
25 | Cc1ccccc1NC1=C(Cl)C(=O)OC1OC(=O)c1ccccc1C (stereo unspecified) | active: 1.64 µM | –
26 | CCCOc1ccc(CNC(=O)Cn2c(=O)oc3ccccc32)cc1 | inconclusive: 16.4 µM [falling, partial curve, poor fit] | –
27 | O=C(Nc1ccc(Cl)cc1)c1ccc(Br)cc1F | inconclusive: 2.06 µM [activator, full curve] | –
28 | Cc1ccccc1-n1ncc2c1CC(C)(C)CC2NC(=O)c1ccncc1 (stereo unspecified) | inconclusive: 4.11 µM [falling, full curve, poor fit] | –
29 | CCOc1ccc(OCC)c(NC(=O)CSc2nc3c(c(=O)n(C)c(=O)n3C)n2C(C)C)c1 | active: 16.4 µM | –
30 | CCCCC(C(=O)NC1CCCC1)N(C(=O)c1snc(C(N)=O)c1N)c1ccc(OCC)cc1 (stereo unspecified) | inconclusive: 25.9 µM [falling, single point] | –
31 | Cc1ccc(CNC(=O)c2cnn(-c3ccc(F)cc3F)c2C2CCN(C(=O)OC(C)(C)C)CC2)cc1 | active: 16.4 µM | –
32 | O=C1CC(O)(C(F)F)Oc2ccc3ccccc3c21 (stereo unspecified) | – | inactive: 1.99%
33 | O=C(c1ccccc1F)N(Cc1cccnc1)Cc1cc2cc3c(cc2[nH]c1=O)OCCO3 | inconclusive: 32.6 µM [falling, partial curve, poor fit] | –
34 | CCOC(=O)C1CCN(CC(=O)Nc2cc(S(=O)(=O)N3CCOCC3)ccc2C)CC1 | inconclusive: 5.17 µM [falling, full curve, poor fit] | –
35 | O=C(N/N=C/c1cn(-c2cccs2)nc1-c1ccccc1)c1ccccc1Cl | – | inactive: -15.6%
36 | O=C(NC(=S)Nc1ncccn1)c1ccc(F)cc1 | inconclusive: 4.61 µM [activator, full curve] | –
37 | Cc1ccccc1NC(=S)NCCSc1ccc(Cl)cc1 | active: 23.1 µM | –
38 | CC(=O)c1c(C)oc2ccc(N(C(=O)c3ccncc3)S(=O)(=O)c3ccc(F)cc3C)cc12 | inconclusive: 16.4 µM [falling, single point] | –
39 | COc1ccc(-c2nc3ccccc3c(=O)n2Cc2ccco2)cc1COc1ccc(NC(C)=O)cc1 | inconclusive: 2.91 µM [activator, full curve, poor fit] | –
40 | COc1ccc(/C=N/Nc2nnc(C)n2N)cc1OC | – | inactive: 13.4%
41 | COc1ccc(C)cc1NC(=O)CSc1nc2ccccc2nc1N1CC(C)OC(C)C1 (stereo unspecified) | inconclusive: 0.0651 µM [falling, full curve] | –
42 | O=C(Nc1ccc(Br)cc1)C1CCCN(S(=O)(=O)c2cccnc2)C1 (stereo unspecified) | inconclusive: 9.2 µM [falling, partial curve, poor fit] | –
43 | O=C(NCCCNC(=O)c1ccco1)c1ccc(F)cc1 | inconclusive: 18.4 µM [falling, partial curve, poor fit] | –
44 | Cc1ccc(S(=O)(=O)C(C#N)c2nc3ccccc3nc2N2CC(C)OC(C)C2)cc1C (stereo unspecified) | inconclusive: 25.9 µM [falling, single point] | –

Whole records, looked up by structure:
COCCNC(=O)c1onc(CSc2ccncc2)c1C(=O)NCCOC in the list: activity change, negative = inhibition: inactive: 0.841%
CN(C)c1nc(-c2ccccc2)cc(C(F)(F)F)c1C#N in the list: Potency: inconclusive: 25.9 µM [activator, single point]

Two entries from above, with tabs:
Row	SMILES	Potency	activity change, negative = inhibition
25	Cc1ccccc1NC1=C(Cl)C(=O)OC1OC(=O)c1ccccc1C (stereo unspecified)	active: 1.64 µM	–
26	CCCOc1ccc(CNC(=O)Cn2c(=O)oc3ccccc32)cc1	inconclusive: 16.4 µM [falling, partial curve, poor fit]	–

(next part)

Row | SMILES | Potency | activity change, negative = inhibition
45 | CCC[C@H]1NC(=O)[C@H](C)N(C)C(=O)C(C)(C)C(=O)C(C)NC(=O)[C@H](Cc2ccc(OC)cc2)N(C)C(=O)[C@H](C(C)C)N(C)C(=O)CNC(=O)[C@H](CC(C)C)N(C)C(=O)CNC(=O)[C@H]([C@@H](C)CC)OC(=O)[C@H]1C (stereo partly specified) (cyclo(G[NMeL]G[NMeV][NMeY](Me)[X2][NMeA][X3])) | active: 1.03 µM | –
46 | COc1cc(Br)cc(/C=N/NC(=O)Cc2ccc(C(F)(F)F)cc2[N+](=O)[O-])c1O | active: 16.4 µM | –
47 | COCCN(CCOC)C(=O)CN1C(=O)NC(Cc2c[nH]c3ccccc23)C1=O (stereo unspecified) | inconclusive: 16.4 µM [activator, partial curve, poor fit] | –
48 | CCOc1ncccc1C(=O)Nc1nc(SC)ns1 | inconclusive: 23.1 µM [activator, partial curve, poor fit] | –
49 | Cc1ccc(Oc2ccc(Cl)cc2NC(=O)c2ccc(F)cc2F)cc1 | inconclusive: 32.6 µM [falling, single point] | –
50 | COc1ccc(NC(=S)N2CCc3ccccc3C2)cc1OC | inconclusive: 23.1 µM [falling, partial curve, poor fit] | –
51 | O=c1oc(C2(O)CCCCC2)cc2ccc(/C=C/c3ccc(F)cc3)cc12 | – | inactive: -6.32%
52 | CCCCCCCC[n+]1cccc2c3ccccc3ccc21 | inconclusive: 20.6 µM [falling, partial curve] | –
53 | O=C(NCC(c1cccs1)N1CCOCC1)c1cc(-c2ccc(F)cc2)nc2ccccc12 (stereo unspecified) | – | inactive: -14.8%
54 | COc1cc(-c2nc3cnccn3c2Nc2ccc(C(C)C)cc2)ccc1O | inactive | –
55 | C#Cc1nc(Nc2cccc(Cl)c2)nc(NC2CCCC2)n1 | inconclusive: 5.8 µM [falling, partial curve, poor fit] | –
56 | CNC(=O)N(C1=NCC(C)S1)c1ccc(F)cc1F (stereo unspecified) | inconclusive: 11.6 µM [falling, partial curve, poor fit] | –
57 | O=C(CN1CCCCC1)NCC(=O)Nc1ccc(F)c(F)c1F | – | inactive: -10.3%
58 | COc1cc(/C=C(\C#N)C(=O)c2ccc(O)c(O)c2)cc(I)c1O | – | inactive: 17.1%
59 | Cc1cc(C)nc(-n2nc(C)c(Br)c2Nc2ccc(Br)cc2)n1 | inconclusive: 11.6 µM [falling, partial curve, poor fit] | –
60 | COc1cccc(CNC(=O)CCS(=O)(=O)c2cc3c4c(c2)CCN4C(=O)CC3)c1 | inconclusive: 18.4 µM [activator, single point] | –
61 | COc1ccc(CNC(=O)C(C)n2nc(C)c3sc4ccccc4c3c2=O)cc1OC (stereo unspecified) | inconclusive: 29.1 µM [activator, single point] | –
62 | O=C(COc1ccc(Cl)cc1Cl)N/N=C/c1ccc[nH]1 | active: 9.2 µM | –
63 | O=C(NC(=S)Nc1nc2ccccc2s1)c1ccco1 | inconclusive: 13 µM [activator, partial curve] | –
64 | NS(=O)(=O)c1ccc(N2N=C(c3ccccc3)CC2c2ccc(F)cc2)cc1 (stereo unspecified) | inconclusive: 23.1 µM [falling, single point] | –
65 | Cc1ccc2c(c1)c1c(c(=O)n(-c3ccccc3C)c(=O)n1Cc1ccccc1F)n2C | – | inactive: 28.1%
66 | CC(=O)c1c(C)[nH]c(C(=O)N2CCN(c3ccc(F)cc3)CC2)c1C | inconclusive: 10.3 µM [falling, partial curve] | –
